Test results reported in the supplement of paper PMC10849652.
The list shows a part of the results.

Protein sequences, listed by entry. Tags and fused reporters are not part of them. Lines headed by an entry give the natural chain unless they say otherwise; changes in a name come on top.
UniProt P20061: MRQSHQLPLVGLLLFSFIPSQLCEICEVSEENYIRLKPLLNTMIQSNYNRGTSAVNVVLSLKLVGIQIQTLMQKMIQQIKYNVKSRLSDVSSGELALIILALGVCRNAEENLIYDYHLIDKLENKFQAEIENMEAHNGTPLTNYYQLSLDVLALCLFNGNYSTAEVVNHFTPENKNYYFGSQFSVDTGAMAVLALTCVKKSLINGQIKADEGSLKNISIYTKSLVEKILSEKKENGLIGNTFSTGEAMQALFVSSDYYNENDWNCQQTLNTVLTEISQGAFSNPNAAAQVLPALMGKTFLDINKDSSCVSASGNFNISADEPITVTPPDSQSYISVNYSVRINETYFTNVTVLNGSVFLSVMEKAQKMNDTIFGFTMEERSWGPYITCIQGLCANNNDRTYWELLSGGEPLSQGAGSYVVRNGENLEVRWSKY
UniProt O95455: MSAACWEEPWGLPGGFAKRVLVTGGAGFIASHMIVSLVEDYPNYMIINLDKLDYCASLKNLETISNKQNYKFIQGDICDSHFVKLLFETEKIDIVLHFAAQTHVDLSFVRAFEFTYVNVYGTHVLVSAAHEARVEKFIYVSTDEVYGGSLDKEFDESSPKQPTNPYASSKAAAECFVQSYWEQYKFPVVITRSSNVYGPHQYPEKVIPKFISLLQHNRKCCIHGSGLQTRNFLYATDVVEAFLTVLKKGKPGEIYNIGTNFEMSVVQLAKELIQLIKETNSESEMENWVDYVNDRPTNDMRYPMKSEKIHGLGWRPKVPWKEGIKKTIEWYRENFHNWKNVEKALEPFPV
UniProt Q6P1N9: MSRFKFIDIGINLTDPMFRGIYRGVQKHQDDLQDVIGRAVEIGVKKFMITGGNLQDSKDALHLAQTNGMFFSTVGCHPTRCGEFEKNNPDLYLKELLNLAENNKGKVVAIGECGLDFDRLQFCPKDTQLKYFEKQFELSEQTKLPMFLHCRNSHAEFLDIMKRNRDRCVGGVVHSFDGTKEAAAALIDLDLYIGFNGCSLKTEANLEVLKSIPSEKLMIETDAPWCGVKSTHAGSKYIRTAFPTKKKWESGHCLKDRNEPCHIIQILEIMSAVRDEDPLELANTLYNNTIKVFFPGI
UniProt Q13569: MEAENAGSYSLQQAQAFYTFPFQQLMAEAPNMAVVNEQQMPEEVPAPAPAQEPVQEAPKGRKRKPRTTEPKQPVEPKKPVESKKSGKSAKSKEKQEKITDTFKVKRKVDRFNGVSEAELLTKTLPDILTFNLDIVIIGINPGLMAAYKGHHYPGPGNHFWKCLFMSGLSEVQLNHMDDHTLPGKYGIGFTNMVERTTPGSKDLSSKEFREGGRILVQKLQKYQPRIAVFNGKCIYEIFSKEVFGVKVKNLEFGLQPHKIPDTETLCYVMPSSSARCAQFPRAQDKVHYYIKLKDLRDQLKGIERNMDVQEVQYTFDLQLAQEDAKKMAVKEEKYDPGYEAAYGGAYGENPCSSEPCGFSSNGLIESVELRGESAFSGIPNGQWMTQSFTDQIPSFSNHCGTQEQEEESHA
UniProt P28347, whole entry, looked up: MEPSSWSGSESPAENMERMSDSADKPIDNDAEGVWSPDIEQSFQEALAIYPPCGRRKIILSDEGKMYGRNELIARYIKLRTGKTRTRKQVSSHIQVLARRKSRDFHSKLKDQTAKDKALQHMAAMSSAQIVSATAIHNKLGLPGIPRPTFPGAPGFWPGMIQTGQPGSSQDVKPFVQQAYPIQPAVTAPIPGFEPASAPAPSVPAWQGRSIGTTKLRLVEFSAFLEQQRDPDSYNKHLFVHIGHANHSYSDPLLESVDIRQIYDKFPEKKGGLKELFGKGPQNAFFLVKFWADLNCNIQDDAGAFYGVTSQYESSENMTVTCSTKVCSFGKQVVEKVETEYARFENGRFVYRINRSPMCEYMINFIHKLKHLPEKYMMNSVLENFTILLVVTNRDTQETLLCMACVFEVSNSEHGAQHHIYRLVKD
UniProt Q6NUS6: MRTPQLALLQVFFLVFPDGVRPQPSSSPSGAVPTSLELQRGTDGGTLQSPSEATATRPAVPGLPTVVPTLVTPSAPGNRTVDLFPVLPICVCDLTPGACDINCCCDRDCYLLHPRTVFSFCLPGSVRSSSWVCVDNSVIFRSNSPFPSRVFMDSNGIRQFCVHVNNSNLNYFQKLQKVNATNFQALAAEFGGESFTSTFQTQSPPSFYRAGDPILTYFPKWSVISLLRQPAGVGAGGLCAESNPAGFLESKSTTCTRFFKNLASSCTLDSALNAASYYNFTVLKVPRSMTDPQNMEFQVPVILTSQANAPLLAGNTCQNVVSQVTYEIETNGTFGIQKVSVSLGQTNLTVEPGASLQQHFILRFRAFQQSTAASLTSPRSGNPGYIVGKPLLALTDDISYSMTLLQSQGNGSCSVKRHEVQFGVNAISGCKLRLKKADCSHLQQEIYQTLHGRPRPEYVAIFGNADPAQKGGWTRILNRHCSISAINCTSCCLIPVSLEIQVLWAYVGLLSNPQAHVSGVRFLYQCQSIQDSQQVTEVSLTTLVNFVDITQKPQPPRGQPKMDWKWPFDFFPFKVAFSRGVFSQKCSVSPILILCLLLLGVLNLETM
UniProt Q86SX3: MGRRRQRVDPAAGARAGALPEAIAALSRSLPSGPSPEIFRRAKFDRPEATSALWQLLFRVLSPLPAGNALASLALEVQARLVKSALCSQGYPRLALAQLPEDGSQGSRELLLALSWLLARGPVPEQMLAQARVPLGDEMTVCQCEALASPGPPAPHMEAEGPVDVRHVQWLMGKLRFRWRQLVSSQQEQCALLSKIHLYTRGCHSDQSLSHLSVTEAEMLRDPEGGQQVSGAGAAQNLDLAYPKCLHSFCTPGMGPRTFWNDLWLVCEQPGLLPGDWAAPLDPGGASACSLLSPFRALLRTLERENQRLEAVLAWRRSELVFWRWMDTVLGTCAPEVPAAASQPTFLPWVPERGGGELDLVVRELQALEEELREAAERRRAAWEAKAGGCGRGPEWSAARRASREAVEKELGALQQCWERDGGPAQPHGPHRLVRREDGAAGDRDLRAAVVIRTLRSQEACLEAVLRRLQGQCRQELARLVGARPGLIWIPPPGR
UniProt Q9Y4I5: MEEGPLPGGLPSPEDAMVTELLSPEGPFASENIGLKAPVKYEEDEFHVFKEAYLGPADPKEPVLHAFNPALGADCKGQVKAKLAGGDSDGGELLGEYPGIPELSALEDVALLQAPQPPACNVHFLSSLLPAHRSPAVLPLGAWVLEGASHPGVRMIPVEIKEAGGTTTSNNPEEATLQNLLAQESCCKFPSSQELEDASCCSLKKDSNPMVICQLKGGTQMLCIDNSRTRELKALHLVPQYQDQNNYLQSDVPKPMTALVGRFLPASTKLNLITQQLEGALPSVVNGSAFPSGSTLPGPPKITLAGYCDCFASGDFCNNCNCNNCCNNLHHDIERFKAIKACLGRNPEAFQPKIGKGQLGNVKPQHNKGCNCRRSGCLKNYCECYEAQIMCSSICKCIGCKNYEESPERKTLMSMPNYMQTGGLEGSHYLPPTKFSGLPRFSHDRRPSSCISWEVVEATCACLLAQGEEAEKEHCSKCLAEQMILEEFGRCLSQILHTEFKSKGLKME
UniProt Q9UHQ7: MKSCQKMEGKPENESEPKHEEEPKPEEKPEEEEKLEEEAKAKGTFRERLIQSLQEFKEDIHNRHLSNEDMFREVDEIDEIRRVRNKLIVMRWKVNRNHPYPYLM
UniProt P19484: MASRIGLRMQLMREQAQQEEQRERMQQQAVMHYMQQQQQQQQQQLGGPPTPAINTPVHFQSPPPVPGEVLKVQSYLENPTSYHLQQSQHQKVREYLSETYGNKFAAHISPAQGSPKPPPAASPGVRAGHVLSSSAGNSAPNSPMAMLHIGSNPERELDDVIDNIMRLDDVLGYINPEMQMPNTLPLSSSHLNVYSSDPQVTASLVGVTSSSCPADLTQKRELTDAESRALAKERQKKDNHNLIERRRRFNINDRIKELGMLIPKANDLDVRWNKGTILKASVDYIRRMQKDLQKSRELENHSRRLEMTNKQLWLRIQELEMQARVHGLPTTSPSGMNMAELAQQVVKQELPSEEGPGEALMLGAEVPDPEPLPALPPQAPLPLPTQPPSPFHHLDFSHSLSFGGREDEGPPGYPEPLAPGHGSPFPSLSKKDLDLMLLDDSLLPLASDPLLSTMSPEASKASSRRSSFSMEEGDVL
UniProt Q9HCD6: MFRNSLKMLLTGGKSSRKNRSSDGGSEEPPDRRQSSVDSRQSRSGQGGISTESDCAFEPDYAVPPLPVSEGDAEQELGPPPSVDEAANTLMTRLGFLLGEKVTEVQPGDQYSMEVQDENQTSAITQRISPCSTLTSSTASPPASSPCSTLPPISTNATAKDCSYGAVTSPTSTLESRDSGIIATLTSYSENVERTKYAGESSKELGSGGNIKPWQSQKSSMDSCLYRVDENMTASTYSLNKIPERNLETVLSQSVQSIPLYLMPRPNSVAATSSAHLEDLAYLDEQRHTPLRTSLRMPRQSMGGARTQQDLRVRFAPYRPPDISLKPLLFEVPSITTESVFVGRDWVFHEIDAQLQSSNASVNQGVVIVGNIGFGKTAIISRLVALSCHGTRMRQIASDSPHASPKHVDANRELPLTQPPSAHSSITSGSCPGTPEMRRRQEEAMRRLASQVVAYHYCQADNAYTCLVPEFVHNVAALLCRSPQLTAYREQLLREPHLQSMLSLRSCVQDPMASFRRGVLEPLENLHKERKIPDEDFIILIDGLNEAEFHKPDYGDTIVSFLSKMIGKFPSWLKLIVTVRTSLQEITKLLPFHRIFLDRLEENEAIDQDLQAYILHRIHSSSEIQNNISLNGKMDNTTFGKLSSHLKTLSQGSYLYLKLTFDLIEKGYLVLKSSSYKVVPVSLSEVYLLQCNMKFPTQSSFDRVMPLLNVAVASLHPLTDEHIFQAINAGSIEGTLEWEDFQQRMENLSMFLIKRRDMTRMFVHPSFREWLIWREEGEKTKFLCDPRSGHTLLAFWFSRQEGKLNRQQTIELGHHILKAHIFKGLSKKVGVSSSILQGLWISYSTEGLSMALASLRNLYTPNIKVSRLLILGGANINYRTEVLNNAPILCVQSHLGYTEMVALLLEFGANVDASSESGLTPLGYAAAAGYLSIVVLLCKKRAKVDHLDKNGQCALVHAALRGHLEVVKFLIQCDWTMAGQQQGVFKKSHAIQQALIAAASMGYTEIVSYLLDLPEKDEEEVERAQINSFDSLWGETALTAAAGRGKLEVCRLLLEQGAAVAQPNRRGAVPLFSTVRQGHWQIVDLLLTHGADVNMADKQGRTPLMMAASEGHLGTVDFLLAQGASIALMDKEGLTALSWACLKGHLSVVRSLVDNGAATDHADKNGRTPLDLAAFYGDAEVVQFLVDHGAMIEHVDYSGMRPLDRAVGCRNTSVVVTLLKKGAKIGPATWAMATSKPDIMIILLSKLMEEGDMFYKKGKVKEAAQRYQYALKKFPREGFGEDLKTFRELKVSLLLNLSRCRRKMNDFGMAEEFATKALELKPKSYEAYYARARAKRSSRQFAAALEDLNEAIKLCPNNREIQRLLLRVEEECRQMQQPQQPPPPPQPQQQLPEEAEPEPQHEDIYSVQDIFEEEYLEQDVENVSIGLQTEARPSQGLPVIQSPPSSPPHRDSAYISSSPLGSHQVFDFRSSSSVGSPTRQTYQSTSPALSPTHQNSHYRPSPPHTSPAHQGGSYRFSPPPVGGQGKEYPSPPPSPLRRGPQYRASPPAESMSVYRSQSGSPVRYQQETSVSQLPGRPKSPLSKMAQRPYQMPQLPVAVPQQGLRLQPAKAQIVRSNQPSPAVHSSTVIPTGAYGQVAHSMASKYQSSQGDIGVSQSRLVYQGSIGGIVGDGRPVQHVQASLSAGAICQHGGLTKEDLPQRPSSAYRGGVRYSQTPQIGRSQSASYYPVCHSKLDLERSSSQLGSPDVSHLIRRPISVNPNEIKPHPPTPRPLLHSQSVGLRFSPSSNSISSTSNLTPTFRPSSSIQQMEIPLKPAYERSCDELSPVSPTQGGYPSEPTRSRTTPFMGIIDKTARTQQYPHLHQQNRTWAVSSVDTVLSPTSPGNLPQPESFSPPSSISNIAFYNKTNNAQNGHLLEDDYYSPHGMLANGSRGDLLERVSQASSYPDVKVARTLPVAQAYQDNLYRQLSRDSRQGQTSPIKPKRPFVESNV
UniProt Q8IYN2: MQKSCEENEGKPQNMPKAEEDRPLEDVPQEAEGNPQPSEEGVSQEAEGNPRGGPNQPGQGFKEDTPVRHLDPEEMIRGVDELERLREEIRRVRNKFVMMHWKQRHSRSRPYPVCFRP
UniProt Q96QE5: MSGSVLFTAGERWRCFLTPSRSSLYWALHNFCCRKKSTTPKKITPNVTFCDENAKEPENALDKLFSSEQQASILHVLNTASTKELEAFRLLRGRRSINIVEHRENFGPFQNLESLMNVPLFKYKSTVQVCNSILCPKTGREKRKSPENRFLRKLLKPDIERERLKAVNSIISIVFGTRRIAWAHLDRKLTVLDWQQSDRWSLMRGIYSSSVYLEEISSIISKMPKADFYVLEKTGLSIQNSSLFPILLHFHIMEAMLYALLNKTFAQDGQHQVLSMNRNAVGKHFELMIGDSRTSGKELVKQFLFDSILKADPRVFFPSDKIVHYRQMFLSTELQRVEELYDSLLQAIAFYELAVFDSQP

Columns and labels:
Assay in all cases: log2 fold change, soluble protein after heating vs DMSO (PISA); higher = thermal stabilisation; K562 lysate, 10 uM; active = over 0.2 and 3.5 SD of the protein, either way, in both replicates (recomputed)
[1] = compound: C=CC(=O)N1CCC[C@@H](n2nc(-c3ccc(Oc4ccccc4)cc3)c3c(N)ncnc32)C1 [ibrutinib]
Method in brief: (§1)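 Values give the log-two fold change in thermal stability against solvent controls, from duplicates. Crude K562 extract at 1 mg/mL protein, made by dounce homogenisation in PBS pH 7.4 with 1 mM MgCl2, was treated with 10 μM compound for 30 min. After 3 min heating across 48°C-58°C, aliquots were pooled, adjusted to 0.5% NP-40 at 4°C and centrifuged at 21,000xg for 90 min. The supernatant was measured by TMTpro 16plex LC-MS/MS with channel sums equalised.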

[2] = compound: CC(=O)c1cnc2ccc(-c3cc(Cl)c(O)c(Cl)c3)nc2c1N[C@H]1CC[C@H](CN(C)C)CC1
Method in brief: as §1

[3] = compound: CC(C)(C)Cn1c(N)nc2ccc(-c3[nH]c(C(C)(C)C)nc3-c3ccc(F)cc3)nc21 [ralimetinib]
Method in brief: as §1

[4] = compound: CC(C)(O)CC(=O)NCCn1ccc2ncnc(Nc3ccc(Oc4cccc(C(F)(F)F)c4)c(Cl)c3)c21
Method in brief: as §1

[5] = compound: CC(C)C1=C2N=C(C=C(N2N=C1)NCC3=CC=CC=C3)NCCCCCCN
Method in brief: as §1

[6] = compound: CC1=C(C2=C(C=C1)C(=O)C3=CC=CC=C3N2CCCN)C
Method in brief: as §1

[7] = compound: CC1=C(C=C(C=C1)NC(=O)C2=CC(=CC=C2)C(C)(C)C#N)NC3=CC4=C(C=C3)N=CN(C4=O)C
Method in brief: as §1

[8] = compound: CC1=C(C=C(C=C1)NC(=O)C2=CC(=CC=C2)N(C)C)NC(=O)C3=CC=C(C=C3)O
Method in brief: as §1

[9] = compound: CC1=CC=C(C=C1)SC2=C3C=C(SC3=CN=C2)C(=O)N
Method in brief: as §1

[10] = compound: CC1=C(C(CC(=O)N1)C2=CC=C(C=C2)C(F)(F)F)C(=O)NC3=C(C=C4C(=C3)C=NN4)F
Method in brief: as §1

Measured: log2 fold change

TAF9B (UniProt Q9HBM6)
inactive: [1] 0.285 | [2] 0.061 | [3] 0.005 | [4] 0 | [5] -0.036 | [6] -0.014 | [7] -0.029 | [8] 0.045 | [9] 0.03

TCN1 (UniProt P20061)
inactive: [1] 0.004 | [3] 0.031 | [4] -0.164 | [5] 0.036 | [10] 1.43 | [7] -0.131 | [8] -0.215

TAX1BP3 (UniProt O14907)
inactive: [1] 0.042 | [2] 0.048 | [3] 0.024 | [4] 0.074 | [5] 0.079 | [6] 0.145 | [8] 0.023 | [9] -0.015

TFPI (UniProt P10646)
inactive: [1] 0.024 | [2] 0.035 | [3] 0.046 | [4] -0.003 | [5] -0.011 | [10] -0.042 | [7] 0.021 | [8] -0.027 | [9] 0.073

TASOR2 (UniProt Q5VWN6)
inactive: [1] 0.222 | [3] 0.037 | [4] -0.176 | [10] -0.035 | [6] 0.112 | [8] 0.016

TGDS (UniProt O95455)
inactive: [1] 0.035 | [2] -0.046 | [10] -0.026 | [7] -0.092 | [9] 0.042

TATDN1 isoform 2 (UniProt Q6P1N9)
inactive: [1] 0.096 | [2] -0.092 | [3] -0.143 | [4] -0.034 | [5] -0.007 | [7] 0.121 | [8] -0.113 | [9] -0.037

TDG (UniProt Q13569)
inactive: [1] 0.017 | [3] -0.012 | [4] 0.042 | [10] 0.049 | [6] 0.034 | [7] -0.066 | [8] -0.114

TET2 (UniProt Q6N021)
inactive: [1] 0.015 | [5] 0.019 | [6] -0.012 | [7] 0.177

TENM4 (UniProt Q6N022)
inactive: [1] -0.043 | [2] 0.035 | [7] 0.162 | [9] -0.109

TBK1 (UniProt Q9UHD2)
inactive: [1] -0.02 | [2] 0.159 | [3] -0.007 | [4] -0.035 | [5] 0.047 | [10] 0.015 | [6] -0.016 | [7] -0.034 | [8] 0.032 | [9] -0.013

TBXA2R (UniProt P21731)
inactive: [1] 0.176 | [3] -0.004 | [4] -0.151 | [5] 0 | [7] 0.005 | [8] -0.094

TEAD1 (UniProt P28347)
inactive: [1] 0.053 | [5] 0.219 | [6] -0.011

TAF8, A0A0A0MRR3
inactive: [6] -0.13

TCTN3 (UniProt Q6NUS6)
inactive: [10] 0.039 | [7] -0.214

TEAD2 isoform 4 (UniProt Q15562)
inactive: [5] 0.167 | [6] -0.188

TAOK2 isoform 2 (UniProt Q9UL54)
inactive: [10] 0.034

TBCCD1 (UniProt Q9NVR7)
inactive: [3] -0.044 | [4] 0.09 | [5] -0.14 | [8] -0.054

TEDC1 (UniProt Q86SX3)
inactive: [2] -0.023 | [3] -0.049 | [4] -0.001 | [5] -0.066 | [10] 0 | [6] -0.033 | [7] -0.018 | [8] 0.082 | [9] -0.024

TDRD15 (UniProt B5MCY1)
inactive: [2] -0.025 | [3] -0.04 | [4] -0.01 | [5] -0.061 | [10] 0.029 | [6] -0.071 | [7] 0.066 | [8] 0.051 | [9] -0.006

TCF3 isoform 2 (UniProt P15923)
inactive: [3] -0.118 | [4] -0.103 | [5] 0.046 | [7] -0.1 | [8] 0.118

TENT2 (UniProt Q6PIY7)
inactive: [6] -0.218

TBXAS1 isoform 3 (UniProt P24557)
inactive: [7] -0.004

TESMIN (UniProt Q9Y4I5)
inactive: [3] 0.038 | [4] 0.108 | [5] 0.062 | [6] 0.123 | [7] -0.021 | [8] 0.003

TEAD3 (UniProt Q99594)
inactive: [3] 0.042 | [4] -0.226 | [5] -0.144 | [6] -0.032 | [7] 0.055 | [8] -0.015

Quoted at random: 2 records from the list.
TCN1 (UniProt P20061)
inactive: [1] 0.004 | [3] 0.031 | [4] -0.164 | [5] 0.036 | [10] 1.43 | [7] -0.131 | [8] -0.215

TEAD1 (UniProt P28347)
inactive: [1] 0.053 | [5] 0.219 | [6] -0.011

(cont.)

TBC1D25 (UniProt Q3MII6)
inactive: [2] 0.024 | [3] 0.098 | [4] -0.042 | [5] 0.051 | [10] -0.047 | [6] 0.007 | [7] -0.149 | [8] -0.013 | [9] -0.181

TEN1 (UniProt Q86WV5)
inactive: [10] 0.203

TCEAL9 (UniProt Q9UHQ7)
inactive: [10] 0.029 | [7] -0.034

TFPI isoform 2 (UniProt P10646)
inactive: [7] -0.034

TFEB (UniProt P19484)
inactive: [10] 0.01 | [7] 0.071

TAGLN3 (UniProt Q9UI15)
inactive: [2] -0.138 | [5] 0.249 | [9] -0.03

TASOR (UniProt Q9UK61)
inactive: [5] -0.194 | [6] -0.083 | [7] 0.006

TANC2 isoform 2 (UniProt Q9HCD6)
inactive: [3] 0.132 | [4] 0.229 | [5] 0.088 | [10] 0.132 | [6] 0.147 | [8] -0.109

TCP11L2 (UniProt Q8N4U5)
inactive: [3] -0.028 | [4] 0.131 | [5] 0.006 | [8] 0.249

TCEAL8 (UniProt Q8IYN2)
inactive: [6] -0.145 | [7] 0.013

TEFM (UniProt Q96QE5)
inactive: [2] -0.081 | [3] -0.014 | [4] -0.17 | [5] 0.054 | [10] -0.006 | [6] 0.005 | [7] 0.032 | [8] 0.014 | [9] -0.081

TBCA (UniProt E5RHG6)
inactive: [3] 0.146 | [4] -0.224 | [5] 0.144 | [7] 0.001 | [8] 0.088
